This passage reports Body weight results from publication PMC10266688 (PLOS ONE, 2023).

Several values for one entry are separate records, joined by “and”; a condition that tells them apart may be missing. Identical values can stand only once. Further values from the same series stand in other lists.

The data set can be described thus: Single administration dose escalation study (MTD, body weight, clinical observations), female CD1 mice. The data set is classed as in vivo. The settings on record: PO 200 mg/kg single dose.

On to `N#Cc1ccc(/C=C2/C(=O)/C(=C/c3ccc(C#N)cc3)C23CCNCC3)cc1` [Up284], for which the Body weight by setting is: (day 0, individual mice) 24.2 g and 26.3 g and 23.6 g; (day 1, individual mice) 24.9 g and 25.8 g and 24.0 g; (day 2, individual mice) 25.7 g and 25.5 g and 24.3 g; (day 3, individual mice) 25.6 g and 25.1 g and 24.5 g; (day 4, individual mice) 25.1 g and 26.3 g and 24.8 g; (day 5, individual mice) 25.1 g and 26.2 g and 24.7 g. In addition, the Body weight is 25.8 g and 25.7 g and 25.4 g (day 6, individual mice); 25.0 g (day 7, individual mice).
